From article PMC6779431
Results are given in words; binding and its absence hold for the method and conditions named. Binding seen in cells or lysates may run through a third protein. Some entries that bind do so weakly or less than the wild type. Sequences can lack the tags named with a protein.

How the values were obtained:
[1] = target: RTP2 fused with Lg and Sm at the C terminus (mouse) (UniProt Q80ZI2); assay: split reporter; Nano-Glo Live Cell Assay in HEK293T cells, pBiT vectors, Lg and Sm fused at the C termini, 24 h after transfection
[2] = target: RTP4 fused with Lg and Sm at the C terminus (UniProt Q9ER80); assay: as above

Row | Binder | binding [1] | binding [2]
1 | RTP2 fused with Lg and Sm at the C terminus (protein, UniProt Q80ZI2 1-223) MSTSLTTCEWKKVFYEKMEVAKPADSWELIIDPTLKPNELGPGWKQYLEQHASGRFHCSWCWHTWQSANVVILFHMHLDRAQRVGSVRMRVFKQLCYQCGTSRLDESSMLEENIEGLVDNLITSLREQCYDEDGGQYRIHVASRPDSGLHRSEFCEACQEGIVHWKPSEKLLEEDAAYTDASKKKGQAGFISSFFSFRWCLFWGTLCLVIVYLQFFRGRSGFL | binds | 
2 | RTP4 fused with Lg and Sm at the C terminus (protein, UniProt Q9ER80 1-249) MLFPDDFSTWEQTFQELMQEEKPGAKWSLHLDKNIVPDGAALGWRQHQQTVLGRFQCSRCCRSWTSAQVMILCHMYPDTLKSQGQARMRIFGQKCQKCFGCQFETPKFSTEIIKRILNNLVNYILQRYYGHRKIALTSNASLGEKVTLDGPHDTRNCEACSLNSHGRCALAHKVKPPRSPSPLPKSSSPSKSCPPPPQTRNTDFGNKTFQDFGNRTFQGCREPPQREIEPPLFLFLSIAAFALFSLFTR |  | binds
